# Experimental data published in doi:10.1101/2025.09.08.674928.
# Results are given in words; binding and its absence hold for the method and conditions named. In cells and extracts the contact can be indirect. A yes stands for co-enrichment or nearness to the bait. Other partners may have been found.
# B1: transketolase (TKT) (enzyme, UniProt P29401 1-623)
# chain: MESYHKPDQQKLQALKDTANRLRISSIQATTAAGSGHPTSCCSAAEIMAVLFFHTMRYKSQDPRNPHNDRFVLSKGHAAPILYAVWAEAGFLAEAELLNLRKISSDLDGHPVPKQAFTDVATGSLGQGLGAACGMAYTGKYFDKASYRVYCLLGDGELSEGSVWEAMAFASIYKLDNLVAILDINRLGQSDPAPLQHQMDIYQKRCEAFGWHAIIVDGHSVEELCKAFGQAKHQPTAIIAKTFKGRGITGVEDKESWHGKPLPKNMAEQIIQEIYSQIQSKKKILATPPQEDAPSVDIANIRMPSLPSYKVGDKIATRKAYGQALAKLGHASDRIIALDGDTKNSTFSEIFKKEHPDRFIECYIAEQNMVSIAVGCATRNRTVPFCSTFAAFFTRAFDQIRMAAISESNINLCGSHCGVSIGEDGPSQMALEDLAMFRSVPTSTVFYPSDGVATEKAVELAANTKGICFIRTSRPENAIIYNNNEDFQVGQAKVVLKSKDDQVTVIGAGVTLHEALAAAELLKKEKINIRVLDPFTIKPLDRKLILDSARATKGRILTVEDHYYEGGIGEAVSSAVVGEPGITVTHLAVNRVPRSGKPAELLKMFGIDRDAIAQAVRGLITKA
# Target: SARS-CoV-2 Nsp3 (from virus infection) (SARS-CoV-2) (UniProt P0DTD1)
# Test: affinity purification with mass spectrometry
binder,measurement,value
B1,binding,binds
